{"source": "patent US20060135494A1", "about": "“Methods of treating injuries of the nervous system associated with hemorrhage” (priority 2002, published 2006)", "test_system": "primary cortical neurons", "test": "PI3K inhibition in primary cortical neurons treated with TUDCA", "type": "cell-based", "details": "data not shown", "note": "At least one compound was matched to its structure with a doubt left."}
{"smiles": "COC[C@H]1OC(=O)c2coc3c2[C@@]1(C)C1=C(C3=O)[C@@H]2CCC(=O)[C@@]2(C)C[C@H]1OC(C)=O", "note": "[wortmannin]", "values": [{"measurement": "effect on cell viability", "setting": "primary cortical neurons with TUDCA", "value": "significantly decreasing"}, {"measurement": "effect on TUDCA-induced Akt phosphorylation", "setting": "primary cortical neurons", "value": "partially inhibited"}]}
